The values that follow come from PMC6113293, “Phosphorylation of ULK1 affects autophagosome fusion and links chaperone-mediated autophagy to macroautophagy” (Nature Communications, 2018).

Experiment [1] has as its target T1, STX17 (endogenous, mouse liver) (mouse (endogenous in liver)) (UniProt Q9D0I4).
T1 sequence: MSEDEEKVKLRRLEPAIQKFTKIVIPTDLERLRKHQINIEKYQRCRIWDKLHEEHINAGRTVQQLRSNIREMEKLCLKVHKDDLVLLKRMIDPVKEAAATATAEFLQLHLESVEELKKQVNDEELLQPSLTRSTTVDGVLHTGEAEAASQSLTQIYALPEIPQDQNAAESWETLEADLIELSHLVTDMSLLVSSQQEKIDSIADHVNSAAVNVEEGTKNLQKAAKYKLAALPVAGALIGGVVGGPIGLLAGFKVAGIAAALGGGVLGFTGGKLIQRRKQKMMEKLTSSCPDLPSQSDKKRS
Put plainly: co-IP; mouse liver lysate; IP with anti-STX17 antibody, ULK1 detected; mice injected with GÖ6983 or PBS for 7 days, or fasted 16 h or fed.

The target in experiment [2] is T2, STX17 (endogenous) (human (endogenous in HeLa)), P56962.
T2 chain: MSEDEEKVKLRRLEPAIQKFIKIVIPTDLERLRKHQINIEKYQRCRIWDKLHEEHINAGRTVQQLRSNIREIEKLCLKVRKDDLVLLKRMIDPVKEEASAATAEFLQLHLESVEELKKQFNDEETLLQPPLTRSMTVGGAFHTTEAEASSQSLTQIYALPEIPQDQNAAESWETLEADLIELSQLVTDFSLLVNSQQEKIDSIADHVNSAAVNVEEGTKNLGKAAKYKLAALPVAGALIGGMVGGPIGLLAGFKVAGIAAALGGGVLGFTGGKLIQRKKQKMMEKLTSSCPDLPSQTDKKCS
Put plainly: co-IP; interaction of ULK1 and STX17 in cells with overexpression or knock-down of SNAP29 or knock-down of VAMP8; cells and constructs not given. The following applies: remark: other sources report otherwise.

For experiment [3], the target named is T2, STX17 (endogenous) (human (endogenous …)). Put plainly: co-IP; endogenous proteins, HeLa lysate; IP with anti-ULK1 or anti-STX17 antibody or IgG; western blot; cells also serum-starved, treated with CQ, PMA or GÖ6983, or transfected with Myc-ULK1 variants. The following applies: remark: other sources report otherwise.
The target in a further experiment is T3, GFP-STX17, P56962.
T3 chain: T2 chain
Put plainly: proximity ligation; GFP-STX17 co-transfected with Myc-ULK1 variants or Myc vector into HeLa; anti-Myc and anti-GFP antibodies; with or without serum starvation. The settings on record: remark: other sources report otherwise.

A further experiment addresses T4, Flag-SBP-STX17, P56962.
T4 chain: T2 chain
Kind of experiment: pull-down; Flag-SBP-STX17 co-transfected with GFP-SNAP29 or VAMP8 and GST-ULK1 variants into HEK293T; 'IP assay with SBP beads'; with or without CQ or bafilomycin A. The following applies: remark: other sources report otherwise.

Another experiment deals with T5, Myc-ULK1 WT, O75385.
T5 chain: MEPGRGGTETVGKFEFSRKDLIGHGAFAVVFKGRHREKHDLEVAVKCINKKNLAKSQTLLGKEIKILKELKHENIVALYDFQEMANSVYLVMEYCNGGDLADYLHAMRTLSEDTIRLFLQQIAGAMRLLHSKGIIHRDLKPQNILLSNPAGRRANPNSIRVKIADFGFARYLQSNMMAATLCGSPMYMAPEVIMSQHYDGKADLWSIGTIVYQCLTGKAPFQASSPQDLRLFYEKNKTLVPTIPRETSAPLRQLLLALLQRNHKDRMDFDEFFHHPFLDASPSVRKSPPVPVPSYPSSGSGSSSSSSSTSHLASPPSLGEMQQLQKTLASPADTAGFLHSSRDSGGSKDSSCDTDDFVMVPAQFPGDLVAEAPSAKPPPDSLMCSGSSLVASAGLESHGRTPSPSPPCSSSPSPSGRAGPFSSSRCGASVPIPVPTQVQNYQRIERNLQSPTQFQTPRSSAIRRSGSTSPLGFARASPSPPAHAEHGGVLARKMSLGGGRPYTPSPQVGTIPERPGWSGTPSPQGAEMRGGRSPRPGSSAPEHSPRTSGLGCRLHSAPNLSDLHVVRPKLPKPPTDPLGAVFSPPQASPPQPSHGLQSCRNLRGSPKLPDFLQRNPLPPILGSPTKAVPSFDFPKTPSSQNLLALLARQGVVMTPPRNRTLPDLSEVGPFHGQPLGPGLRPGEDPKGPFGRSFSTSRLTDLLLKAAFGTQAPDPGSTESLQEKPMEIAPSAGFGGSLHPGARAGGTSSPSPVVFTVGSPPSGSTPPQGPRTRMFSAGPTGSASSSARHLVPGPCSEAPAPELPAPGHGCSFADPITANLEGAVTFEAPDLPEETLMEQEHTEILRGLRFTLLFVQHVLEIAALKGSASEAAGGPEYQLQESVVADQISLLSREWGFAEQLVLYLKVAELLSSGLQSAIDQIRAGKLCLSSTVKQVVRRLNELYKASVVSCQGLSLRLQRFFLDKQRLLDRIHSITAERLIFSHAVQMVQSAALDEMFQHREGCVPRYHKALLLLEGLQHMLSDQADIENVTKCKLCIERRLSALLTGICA
Put plainly: co-IP; semi-endogenous: Myc-ULK1 variants transfected, endogenous partners detected in the IP by their antibodies. The settings on record: remark: other sources report otherwise.

For experiment [4], the target named is T6, Myc-ULK1, CIP treated, O75385.
T6 chain: T5 chain
Kind of experiment: pull-down; Myc-ULK1 immunoprecipitated from HEK293, beads split in three and treated with CIP or PKCα kinase assay, then incubated with normal cell lysate; endogenous STX17 detected; only the target purified. The following applies: remark: other sources report otherwise.

For experiment [5], the target named is T7, Myc-ULK1, PKCα kinase treated, O75385.
T7 chain: T5 chain
Described as above. The settings on record: remark: other sources report otherwise.

No constants are given. Whether binding was seen depends on the method and setting. Binding seen in cells or lysates may run through a third protein. Some binding calls cover weakened binding; strength is not graded here. For some assays here: Sequences can lack the tags named with a protein.

B1: ULK1 (endogenous, mouse liver) (enzyme, UniProt O70405 1-1051)
chain: MEPGRGGVETVGKFEFSRKDLIGHGAFAVVFKGRHREKHDLEVAVKCINKKNLAKSQTLLGKEIKILKELKHENIVALYDFQEMANSVYLVMEYCNGGDLADYLHTMRTLSEDTVRLFLQQIAGAMRLLHSKGIIHRDLKPQNILLSNPGGRRANPSNIRVKIADFGFARYLQSNMMAATLCGSPMYMAPEVIMSQHYDGKADLWSIGTIVYQCLTGKAPFQASSPQDLRLFYEKNKTLVPAIPRETSAPLRQLLLALLQRNHKDRMDFDEFFHHPFLDASTPIKKSPPVPVPSYPSSGSGSSSSSSSASHLASPPSLGEMPQLQKTLTSPADAAGFLQGSRDSGGSSKDSCDTDDFVMVPAQFPGDLVAEAASAKPPPDSLLCSGSSLVASAGLESHGRTPSPSPTCSSSPSPSGRPGPFSSNRYGASVPIPVPTQVHNYQRIEQNLQSPTQQQTARSSAIRRSGSTTPLGFGRASPSPPSHTDGAMLARKLSLGGGRPYTPSPQVGTIPERPSWSRVPSPQGADVRVGRSPRPGSSVPEHSPRTTGLGCRLHSAPNLSDFHVVRPKLPKPPTDPLGATFSPPQTSAPQPCPGLQSCRPLRGSPKLPDFLQRSPLPPILGSPTKAGPSFDFPKTPSSQNLLTLLARQGVVMTPPRNRTLPDLSEASPFHGQQLGSGLRPAEDTRGPFGRSFSTSRITDLLLKAAFGTQASDSGSTDSLQEKPMEIAPSAGFGGTLHPGARGGGASSPAPVVFTVGSPPSGATPPQSTRTRMFSVGSSSSLGSTGSSSARHLVPGACGEAPELSAPGHCCSLADPLAANLEGAVTFEAPDLPEETLMEQEHTETLHSLRFTLAFAQQVLEIAALKGSASEAAGGPEYQLQESVVADQISQLSREWGFAEQLVLYLKVAELLSSGLQTAIDQIRAGKLCLSSTVKQVVRRLNELYKASVVSCQGLSLRLQRFFLDKQRLLDGIHGVTAERLILSHAVQMVQSAALDEMFQHREGCVPRYHKALLLLEGLQHTLTDQADIENIAKCKLCIERRLSALLSGVYA
Regarding B1, the binding entry in experiment [1] was “binds”.

B2: ULK1 (endogenous), O75385 1-1050 (enzyme)
chain: T5 chain
In the case of B2, the binding entry in experiment [2] and in experiment [3] was “binds” throughout.

B3: Myc-ULK1 WT, O75385 1-1050 (enzyme)
chain: T5 chain
For the molecule B3, the binding entry with GFP-STX17, P56962 was “binds”.

B4: VAMP8 (transfected, tag not told), Q9BV40 1-100 (protein)
chain: MEEASEGGGNDRVRNLQSEVEGVKNIMTQNVERILARGENLEHLRNKTEDLEATSEHFKTTSQKVARKFWWKNVKMIVLICVIVFIIILFIVLFATGAFS
B4: the binding result with Flag-SBP-STX17, P56962 was “binds”.

B5: STX17 (endogenous), P56962 1-302 (protein)
chain: T2 chain
As to B5, the binding entry is listed as “binds” with Myc-ULK1 WT, O75385; “binds” in experiment [4]; “binds” in experiment [5].
